We go through two substances from publication PMC7648380.

Sequences of proteins named here, by UniProt entry; tags and fusion partners are left off. Residues count along the entry.
UniProt Q01097, residues 27-1482: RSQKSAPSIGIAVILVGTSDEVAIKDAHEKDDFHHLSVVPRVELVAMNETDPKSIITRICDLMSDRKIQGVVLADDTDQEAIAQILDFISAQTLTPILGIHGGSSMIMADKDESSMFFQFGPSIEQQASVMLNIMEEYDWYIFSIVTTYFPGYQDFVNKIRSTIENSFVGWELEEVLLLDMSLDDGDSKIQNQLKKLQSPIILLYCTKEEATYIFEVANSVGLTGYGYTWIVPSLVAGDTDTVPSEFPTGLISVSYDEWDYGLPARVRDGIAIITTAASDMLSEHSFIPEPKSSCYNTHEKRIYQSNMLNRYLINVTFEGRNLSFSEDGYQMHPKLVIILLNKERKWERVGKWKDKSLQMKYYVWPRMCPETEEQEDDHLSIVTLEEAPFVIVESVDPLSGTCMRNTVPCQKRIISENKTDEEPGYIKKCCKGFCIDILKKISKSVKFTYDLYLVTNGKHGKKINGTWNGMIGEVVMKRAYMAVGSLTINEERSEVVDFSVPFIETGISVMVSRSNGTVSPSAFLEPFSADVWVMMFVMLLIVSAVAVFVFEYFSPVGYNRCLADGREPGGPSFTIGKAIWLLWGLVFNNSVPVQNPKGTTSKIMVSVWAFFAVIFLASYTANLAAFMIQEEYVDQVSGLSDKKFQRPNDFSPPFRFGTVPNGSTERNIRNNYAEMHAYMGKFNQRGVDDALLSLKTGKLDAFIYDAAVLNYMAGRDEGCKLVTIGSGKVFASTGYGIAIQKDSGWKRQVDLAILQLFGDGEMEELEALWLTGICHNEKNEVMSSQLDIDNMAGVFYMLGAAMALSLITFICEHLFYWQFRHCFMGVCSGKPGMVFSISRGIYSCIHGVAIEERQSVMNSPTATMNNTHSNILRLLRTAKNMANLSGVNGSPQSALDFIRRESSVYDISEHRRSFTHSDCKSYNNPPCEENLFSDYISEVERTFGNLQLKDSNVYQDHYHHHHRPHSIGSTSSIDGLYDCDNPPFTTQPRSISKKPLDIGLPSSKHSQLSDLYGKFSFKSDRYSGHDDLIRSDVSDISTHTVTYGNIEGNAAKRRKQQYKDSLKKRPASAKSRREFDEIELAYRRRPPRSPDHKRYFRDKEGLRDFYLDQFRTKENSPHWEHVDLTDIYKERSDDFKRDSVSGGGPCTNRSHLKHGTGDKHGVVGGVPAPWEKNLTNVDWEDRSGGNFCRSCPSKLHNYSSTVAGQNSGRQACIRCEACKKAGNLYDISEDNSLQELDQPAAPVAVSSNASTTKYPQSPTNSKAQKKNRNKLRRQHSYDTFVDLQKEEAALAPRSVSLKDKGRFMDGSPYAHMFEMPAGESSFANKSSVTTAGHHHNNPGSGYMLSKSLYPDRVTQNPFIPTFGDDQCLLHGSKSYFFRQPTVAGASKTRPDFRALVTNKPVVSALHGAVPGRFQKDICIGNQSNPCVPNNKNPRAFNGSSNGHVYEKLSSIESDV

In the assay the target is T1, megakaryocyte protein tyrosine phosphatase (PTPMEG) (mouse (endogenous in hippocampus)) (UniProt Q9WU22).
T1 sequence: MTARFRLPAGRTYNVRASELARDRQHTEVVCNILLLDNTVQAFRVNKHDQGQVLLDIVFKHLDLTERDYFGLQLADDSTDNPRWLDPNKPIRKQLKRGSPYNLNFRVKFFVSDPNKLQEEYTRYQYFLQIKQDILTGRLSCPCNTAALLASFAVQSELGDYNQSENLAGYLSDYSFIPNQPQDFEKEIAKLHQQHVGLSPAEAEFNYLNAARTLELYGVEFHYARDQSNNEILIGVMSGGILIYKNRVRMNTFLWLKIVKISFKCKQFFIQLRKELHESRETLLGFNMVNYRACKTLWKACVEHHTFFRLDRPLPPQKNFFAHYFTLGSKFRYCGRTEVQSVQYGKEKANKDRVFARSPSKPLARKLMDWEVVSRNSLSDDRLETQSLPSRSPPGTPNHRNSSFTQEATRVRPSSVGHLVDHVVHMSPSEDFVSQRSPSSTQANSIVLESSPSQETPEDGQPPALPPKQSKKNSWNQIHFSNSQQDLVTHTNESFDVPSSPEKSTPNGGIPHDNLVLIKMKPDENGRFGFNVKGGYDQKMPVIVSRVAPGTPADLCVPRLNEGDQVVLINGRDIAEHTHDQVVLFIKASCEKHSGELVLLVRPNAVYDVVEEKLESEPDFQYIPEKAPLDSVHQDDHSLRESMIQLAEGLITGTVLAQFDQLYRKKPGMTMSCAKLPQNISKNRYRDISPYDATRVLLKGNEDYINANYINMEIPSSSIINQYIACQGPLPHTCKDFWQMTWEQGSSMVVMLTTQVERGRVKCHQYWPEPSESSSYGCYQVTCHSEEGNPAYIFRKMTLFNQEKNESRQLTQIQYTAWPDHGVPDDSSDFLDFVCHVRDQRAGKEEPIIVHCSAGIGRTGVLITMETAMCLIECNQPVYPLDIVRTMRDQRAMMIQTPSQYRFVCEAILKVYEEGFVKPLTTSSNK
Kind of assay: co-IP; P2 fractions from wild type mouse hippocampi solubilized in 50 mM Tris-HCl pH 8.0, 150 mM NaCl, 2 mM EDTA, 1% Triton X-100; immunoprecipitation with anti-PTPMEG antibody (or control IgG) pre-bound to protein G-agarose; immunoblot with anti-GluN2A and anti-GluN2B.

Results are given in words; binding and its absence hold for the method and conditions named. In cells and extracts the contact can be indirect. Some binding calls cover weakened binding; strength is not graded here.

Consider “GluN2A NMDAR subunit (from UniProt P35436 23-1464) (receptor)”, for which the binding result is listed as “binds”.
Consider “GluN2B NMDAR subunit (from UniProt Q01097 27-1482) (receptor)”, for which the binding entry is given as “binds”.
